According to paper PMC8933279:
Results are given in words; binding and its absence hold for the method and conditions named. In cells and extracts the contact can be indirect. Some binding calls cover weakened binding; strength is not graded here.

The chains behind the UniProt entries cited, without tags or fusion partners. Where a name states a change or a piece, a line headed by the entry shows the natural chain unless it says otherwise.
UniProt Q13569: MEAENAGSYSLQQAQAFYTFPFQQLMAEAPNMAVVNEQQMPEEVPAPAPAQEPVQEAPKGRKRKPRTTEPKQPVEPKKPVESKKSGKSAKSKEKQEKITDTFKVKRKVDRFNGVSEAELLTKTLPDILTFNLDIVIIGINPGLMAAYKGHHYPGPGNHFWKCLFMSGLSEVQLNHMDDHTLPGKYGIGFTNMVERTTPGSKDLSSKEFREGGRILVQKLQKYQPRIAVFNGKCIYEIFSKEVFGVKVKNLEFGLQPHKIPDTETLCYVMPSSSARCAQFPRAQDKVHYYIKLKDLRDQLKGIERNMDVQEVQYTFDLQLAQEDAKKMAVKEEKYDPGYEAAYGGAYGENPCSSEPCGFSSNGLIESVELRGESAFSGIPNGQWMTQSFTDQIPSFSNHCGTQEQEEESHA
UniProt Q8NFU7: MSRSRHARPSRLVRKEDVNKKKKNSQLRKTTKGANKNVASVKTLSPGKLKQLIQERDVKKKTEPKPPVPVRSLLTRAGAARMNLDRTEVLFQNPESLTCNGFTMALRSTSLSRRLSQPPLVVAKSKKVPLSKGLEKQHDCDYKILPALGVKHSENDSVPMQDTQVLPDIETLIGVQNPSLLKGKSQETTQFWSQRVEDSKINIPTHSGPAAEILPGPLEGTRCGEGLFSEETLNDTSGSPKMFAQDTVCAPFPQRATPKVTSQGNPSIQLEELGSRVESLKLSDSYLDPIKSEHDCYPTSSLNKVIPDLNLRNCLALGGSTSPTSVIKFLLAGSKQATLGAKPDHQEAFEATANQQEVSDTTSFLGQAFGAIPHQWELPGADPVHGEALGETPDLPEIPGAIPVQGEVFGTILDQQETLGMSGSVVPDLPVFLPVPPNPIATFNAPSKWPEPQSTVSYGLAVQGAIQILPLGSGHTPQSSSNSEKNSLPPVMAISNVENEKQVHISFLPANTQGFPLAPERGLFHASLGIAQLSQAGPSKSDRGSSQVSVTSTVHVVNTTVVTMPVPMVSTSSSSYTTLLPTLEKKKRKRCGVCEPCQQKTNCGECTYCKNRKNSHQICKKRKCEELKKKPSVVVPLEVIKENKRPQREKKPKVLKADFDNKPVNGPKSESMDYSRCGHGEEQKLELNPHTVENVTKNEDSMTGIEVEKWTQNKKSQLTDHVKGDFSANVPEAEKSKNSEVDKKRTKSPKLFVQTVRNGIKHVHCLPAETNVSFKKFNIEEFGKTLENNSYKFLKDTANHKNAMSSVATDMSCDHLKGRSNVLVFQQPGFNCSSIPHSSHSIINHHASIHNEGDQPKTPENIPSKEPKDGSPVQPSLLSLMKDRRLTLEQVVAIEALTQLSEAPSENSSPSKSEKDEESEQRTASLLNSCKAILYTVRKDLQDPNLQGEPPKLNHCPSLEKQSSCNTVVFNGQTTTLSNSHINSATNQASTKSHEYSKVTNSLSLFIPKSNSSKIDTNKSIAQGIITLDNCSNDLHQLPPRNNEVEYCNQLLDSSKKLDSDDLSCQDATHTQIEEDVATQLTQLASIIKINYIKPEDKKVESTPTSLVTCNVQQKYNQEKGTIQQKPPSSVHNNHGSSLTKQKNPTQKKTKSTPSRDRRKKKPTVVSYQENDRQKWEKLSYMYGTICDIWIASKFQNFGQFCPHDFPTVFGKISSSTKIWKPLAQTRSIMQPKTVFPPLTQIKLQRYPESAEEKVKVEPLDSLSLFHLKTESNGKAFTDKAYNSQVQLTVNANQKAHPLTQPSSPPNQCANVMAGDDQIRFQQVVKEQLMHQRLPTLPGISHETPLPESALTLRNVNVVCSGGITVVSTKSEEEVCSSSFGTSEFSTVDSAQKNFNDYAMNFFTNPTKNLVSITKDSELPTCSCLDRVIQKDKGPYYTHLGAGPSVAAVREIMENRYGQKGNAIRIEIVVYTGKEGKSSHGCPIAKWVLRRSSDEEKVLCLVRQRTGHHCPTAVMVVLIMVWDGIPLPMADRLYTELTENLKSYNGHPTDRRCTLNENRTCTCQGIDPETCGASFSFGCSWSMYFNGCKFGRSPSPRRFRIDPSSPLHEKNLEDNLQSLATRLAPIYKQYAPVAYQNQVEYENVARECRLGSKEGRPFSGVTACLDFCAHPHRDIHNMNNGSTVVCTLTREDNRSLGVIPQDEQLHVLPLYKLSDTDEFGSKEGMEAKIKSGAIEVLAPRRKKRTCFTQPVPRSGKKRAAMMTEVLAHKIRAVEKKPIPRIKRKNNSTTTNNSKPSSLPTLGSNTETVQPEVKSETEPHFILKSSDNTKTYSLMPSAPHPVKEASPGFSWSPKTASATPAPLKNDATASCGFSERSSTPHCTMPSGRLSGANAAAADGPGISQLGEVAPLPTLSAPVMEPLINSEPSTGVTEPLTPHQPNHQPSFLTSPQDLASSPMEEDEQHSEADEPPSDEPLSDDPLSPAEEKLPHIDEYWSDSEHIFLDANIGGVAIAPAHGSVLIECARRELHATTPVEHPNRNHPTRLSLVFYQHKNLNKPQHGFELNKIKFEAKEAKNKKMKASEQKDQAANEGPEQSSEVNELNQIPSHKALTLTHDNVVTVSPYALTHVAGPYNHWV
UniProt P51608: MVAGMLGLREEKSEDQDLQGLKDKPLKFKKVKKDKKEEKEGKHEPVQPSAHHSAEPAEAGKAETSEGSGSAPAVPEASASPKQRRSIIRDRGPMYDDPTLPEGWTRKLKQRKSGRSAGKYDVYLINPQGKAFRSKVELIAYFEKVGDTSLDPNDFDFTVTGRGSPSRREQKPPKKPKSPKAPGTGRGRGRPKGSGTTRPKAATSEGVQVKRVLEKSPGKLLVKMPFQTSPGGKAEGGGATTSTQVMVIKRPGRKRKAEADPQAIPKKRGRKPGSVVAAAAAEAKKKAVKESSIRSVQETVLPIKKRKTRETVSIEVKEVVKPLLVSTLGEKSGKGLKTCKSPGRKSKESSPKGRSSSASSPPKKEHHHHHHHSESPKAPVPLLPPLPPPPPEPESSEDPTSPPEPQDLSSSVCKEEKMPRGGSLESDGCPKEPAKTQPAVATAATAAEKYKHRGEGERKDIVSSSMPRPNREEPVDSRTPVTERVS
UniProt Q15796: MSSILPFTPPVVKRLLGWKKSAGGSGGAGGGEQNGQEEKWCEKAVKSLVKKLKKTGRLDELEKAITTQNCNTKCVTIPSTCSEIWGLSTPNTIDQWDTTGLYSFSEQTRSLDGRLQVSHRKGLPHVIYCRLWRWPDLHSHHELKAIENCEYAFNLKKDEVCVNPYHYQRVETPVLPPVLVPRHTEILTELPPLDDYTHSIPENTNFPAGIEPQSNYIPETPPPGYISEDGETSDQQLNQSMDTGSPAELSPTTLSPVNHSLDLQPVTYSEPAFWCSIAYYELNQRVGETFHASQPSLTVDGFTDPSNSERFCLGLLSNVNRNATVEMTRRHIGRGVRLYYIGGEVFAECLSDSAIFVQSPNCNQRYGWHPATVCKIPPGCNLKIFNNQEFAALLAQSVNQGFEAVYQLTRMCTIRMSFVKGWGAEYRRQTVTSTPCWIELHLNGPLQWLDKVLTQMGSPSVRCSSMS
UniProt P08047: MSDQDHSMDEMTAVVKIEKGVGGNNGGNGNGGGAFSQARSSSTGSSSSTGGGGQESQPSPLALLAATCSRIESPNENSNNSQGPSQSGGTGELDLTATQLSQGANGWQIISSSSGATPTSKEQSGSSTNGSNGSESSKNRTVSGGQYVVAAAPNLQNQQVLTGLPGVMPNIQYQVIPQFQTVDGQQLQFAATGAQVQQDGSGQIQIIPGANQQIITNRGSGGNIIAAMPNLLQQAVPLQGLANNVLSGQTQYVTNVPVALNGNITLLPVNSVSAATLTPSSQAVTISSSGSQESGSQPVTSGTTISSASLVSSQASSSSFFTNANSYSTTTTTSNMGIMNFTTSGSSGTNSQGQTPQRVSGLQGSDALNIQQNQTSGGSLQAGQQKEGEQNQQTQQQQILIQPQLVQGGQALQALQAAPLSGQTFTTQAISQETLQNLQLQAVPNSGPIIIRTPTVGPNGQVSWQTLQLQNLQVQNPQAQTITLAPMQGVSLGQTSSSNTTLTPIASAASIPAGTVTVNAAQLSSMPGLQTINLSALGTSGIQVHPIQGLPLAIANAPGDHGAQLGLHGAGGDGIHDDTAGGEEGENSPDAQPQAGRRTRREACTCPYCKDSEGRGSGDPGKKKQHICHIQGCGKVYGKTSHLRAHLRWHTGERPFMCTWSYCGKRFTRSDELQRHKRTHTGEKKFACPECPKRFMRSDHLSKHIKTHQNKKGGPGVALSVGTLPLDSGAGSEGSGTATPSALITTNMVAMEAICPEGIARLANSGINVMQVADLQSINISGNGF
UniProt Q99612: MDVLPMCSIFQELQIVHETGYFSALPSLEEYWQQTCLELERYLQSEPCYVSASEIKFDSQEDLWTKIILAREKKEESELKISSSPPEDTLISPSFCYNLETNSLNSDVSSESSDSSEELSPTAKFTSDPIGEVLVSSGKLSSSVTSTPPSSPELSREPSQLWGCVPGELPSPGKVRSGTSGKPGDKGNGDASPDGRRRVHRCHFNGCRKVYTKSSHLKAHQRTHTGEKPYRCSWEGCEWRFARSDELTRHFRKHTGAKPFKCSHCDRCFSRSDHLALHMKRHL

Columns and labels:
[1] = molecular target: thymine DNA glycosylase (TDG) (human (endogenous in NCI-H460 and A549)) (UniProt Q13569); assay: co-IP; NCI-H460 cell lysate, endogenous proteins; co-IP kit (Thermo Fisher) with 10 ug immobilised affinity-purified antibody, overnight at 4 °C, eluate by western blotting
[2] = molecular target: Tet1 (human (endogenous in A549)) (UniProt Q8NFU7); assay: co-IP; A549 cell lysate, endogenous proteins, cells with or without TGF-β; co-IP kit (Thermo Fisher) with 10 ug immobilised affinity-purified antibody, overnight at 4 °C, eluate by western blotting
[3] = molecular target: thymine DNA glycosylase (TDG) (human (endogenous in NCI-H460 and A549)) (UniProt Q13569); assay: as above
[4] = molecular target: methyl-CpG-binding protein 2 (MeCP2) (human (endogenous in A549)) (UniProt P51608); assay: as above

## SMAD2/3 (from UniProt Q15796 1-467; P84022 1-425) (complex)
[1]
  binding: binds

## Sp1 (from UniProt P08047 1-785)
[2]
  binding: binds
[3]
  binding: binds

## Krueppel-like factor 6 (KLF6) (from UniProt Q99612 1-283)
[4]
  binding: binds
